Only results without a clear call are listed here; the source files them as inconclusive.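 Rule for the calls: active = fitted dose curve passes 500% activation at or below the top valid tested dose; inconclusive = no clear call, values can overlap the other calls; inactive = the rest, opposite-direction activity included.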
Assay: HRE-luciferase activation under added iron, dose response, mechanism study for HIF activator project, cell-based, iron medium, luminescence, U2OS, dry powder (AID 493228)
Conditions: U2OS HRE-luciferase reporter; at 38 µM (top of the series)
Outline: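 Assay system – U2OS 3×HRE-luciferase reporter cells · Amount – 6,000 cells per well · Buffer or medium – ferric nitrate added, 50 µM final · Compound – 8 concentrations, 3-fold spacing · Incubation – cells plated 24 h before dosing, compound exposure 24 h at 37 °C · Technique – Steady-Glo luminescence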

Row | Structure (SMILES) | activation
1 | OCC1CCN(c2nc(-c3ccccn3)nnc2-c2ccccc2)CC1 | inconclusive: 39.3%
2 | O=C(NCC1CCCCC1)c1cc(-c2ccccc2)on1 | inconclusive: 199%
3 | Cc1cccc(CNC(=O)c2cc(-c3ccccc3)on2)c1 | inconclusive: 1.65%
4 | O=C(c1cc(-c2ccccc2)on1)N1CCc2cccnc21 | inconclusive: 70.7%
5 | Cc1ccc(CNc2nc(-c3ccccn3)nnc2-c2ccccc2)cc1 | inconclusive: 251%
6 | O=C(c1cc(-c2ccccc2)on1)N1CCC(CO)CC1 | inconclusive: 18.6%
7 | c1ccc(-c2nnc(-c3ccccn3)nc2N2CCN(c3ccncc3)CC2)cc1 | inconclusive: 209%

— PubChem BioAssay AID493228 (Broad Institute, 2011)
